For test [1], the target named is YAP1, endogenous (human (endogenous in MDA-MB-231 and BT549)) (UniProt P46937). The test can be described thus: co-IP; endogenous proteins of MDA-MB-231 and BT549 cells; immunoprecipitation lysis buffer with PMSF and phosphatase inhibitors; protein A and protein G agarose beads; western blot. Background: Immunoblotting shows a protein as a band on a membrane.
The target of another test is HA-tagged YAP1 (UniProt P46937). Kind of test: co-IP; FLAG-DLAT and HA-YAP1 plasmids co-transfected into HEK293T, MDA-MB-231 and BT549 cells; immunoprecipitation lysis buffer; protein A and protein G agarose beads; western blot.

Sequences of proteins named here, by UniProt entry; tags and fusion partners are left off.
UniProt P46937: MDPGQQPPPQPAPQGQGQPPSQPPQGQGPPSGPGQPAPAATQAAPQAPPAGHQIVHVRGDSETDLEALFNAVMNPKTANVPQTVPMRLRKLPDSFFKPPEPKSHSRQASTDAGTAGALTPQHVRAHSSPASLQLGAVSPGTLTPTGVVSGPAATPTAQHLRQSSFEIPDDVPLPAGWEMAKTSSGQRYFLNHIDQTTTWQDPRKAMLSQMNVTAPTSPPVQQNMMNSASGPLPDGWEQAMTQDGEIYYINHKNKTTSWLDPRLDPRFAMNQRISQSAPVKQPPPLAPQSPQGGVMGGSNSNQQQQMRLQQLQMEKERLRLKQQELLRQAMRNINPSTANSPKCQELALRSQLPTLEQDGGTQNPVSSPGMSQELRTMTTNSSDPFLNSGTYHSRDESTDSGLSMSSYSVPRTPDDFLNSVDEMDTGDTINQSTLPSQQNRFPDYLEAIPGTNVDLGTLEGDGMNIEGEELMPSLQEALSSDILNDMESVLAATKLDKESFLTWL

Results are given in words; binding and its absence hold for the method and conditions named. Binding seen in cells or lysates may run through a third protein. Some entries that bind do so weakly or less than the wild type. For some assays here: Tags and fused reporters may be left off the sequences shown.

B1: dihydrolipoamide S-acetyltransferase (DLAT), endogenous (protein, UniProt P10515 87-647)
chain: SLPPHQKVPLPSLSPTMQAGTIARWEKKEGDKINEGDLIAEVETDKATVGFESLEECYMAKILVAEGTRDVPIGAIICITVGKPEDIEAFKNYTLDSSAAPTPQAAPAPTPAATASPPTPSAQAPGSSYPPHMQVLLPALSPTMTMGTVQRWEKKVGEKLSEGDLLAEIETDKATIGFEVQEEGYLAKILVPEGTRDVPLGTPLCIIVEKEADISAFADYRPTEVTDLKPQVPPPTPPPVAAVPPTPQPLAPTPSAPCPATPAGPKGRVFVSPLAKKLAVEKGIDLTQVKGTGPDGRITKKDIDSFVPSKVAPAPAAVVPPTGPGMAPVPTGVFTDIPISNIRRVIAQRLMQSKQTIPHYYLSIDVNMGEVLLVRKELNKILEGRSKISVNDFIIKASALACLKVPEANSSWMDTVIRQNHVVDVSVAVSTPAGLITPIVFNAHIKGVETIANDVVSLATKAREGKLQPHEFQGGTFTISNLGMFGIKNFSAIINPPQACILAIGASEDKLVPADNEKGFDVASMMSVTLSCDHRVVDGAVGAQWLAEFRKYLEKPITMLL
On to B1, for which the binding result in test [1] is given as “binds”.

B2: FLAG-tagged DLAT (protein, UniProt P10515 87-647)
chain: B1 chain
Take B2: the binding result in the test with HA-tagged YAP1 is “binds”.

For the origin of these results see article PMC11520541.
